Results taken from patent US7371539B2 (priority 2003, dated 2008).
“Also recorded” adds a separate entry of the source. At least one structure is not confirmed: it was looked up by name or label, or the drawing left a doubt.

Amino acid sequences for entries named in this document (tags omitted). A change or cut given only in a name is not applied to a line headed by its entry.
UniProt P06633: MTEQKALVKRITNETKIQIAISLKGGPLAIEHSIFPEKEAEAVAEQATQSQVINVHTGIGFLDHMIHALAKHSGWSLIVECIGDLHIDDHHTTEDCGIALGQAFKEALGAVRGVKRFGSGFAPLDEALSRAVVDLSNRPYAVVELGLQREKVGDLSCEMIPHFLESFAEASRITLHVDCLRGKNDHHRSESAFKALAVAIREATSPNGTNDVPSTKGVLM
UniProt P35169: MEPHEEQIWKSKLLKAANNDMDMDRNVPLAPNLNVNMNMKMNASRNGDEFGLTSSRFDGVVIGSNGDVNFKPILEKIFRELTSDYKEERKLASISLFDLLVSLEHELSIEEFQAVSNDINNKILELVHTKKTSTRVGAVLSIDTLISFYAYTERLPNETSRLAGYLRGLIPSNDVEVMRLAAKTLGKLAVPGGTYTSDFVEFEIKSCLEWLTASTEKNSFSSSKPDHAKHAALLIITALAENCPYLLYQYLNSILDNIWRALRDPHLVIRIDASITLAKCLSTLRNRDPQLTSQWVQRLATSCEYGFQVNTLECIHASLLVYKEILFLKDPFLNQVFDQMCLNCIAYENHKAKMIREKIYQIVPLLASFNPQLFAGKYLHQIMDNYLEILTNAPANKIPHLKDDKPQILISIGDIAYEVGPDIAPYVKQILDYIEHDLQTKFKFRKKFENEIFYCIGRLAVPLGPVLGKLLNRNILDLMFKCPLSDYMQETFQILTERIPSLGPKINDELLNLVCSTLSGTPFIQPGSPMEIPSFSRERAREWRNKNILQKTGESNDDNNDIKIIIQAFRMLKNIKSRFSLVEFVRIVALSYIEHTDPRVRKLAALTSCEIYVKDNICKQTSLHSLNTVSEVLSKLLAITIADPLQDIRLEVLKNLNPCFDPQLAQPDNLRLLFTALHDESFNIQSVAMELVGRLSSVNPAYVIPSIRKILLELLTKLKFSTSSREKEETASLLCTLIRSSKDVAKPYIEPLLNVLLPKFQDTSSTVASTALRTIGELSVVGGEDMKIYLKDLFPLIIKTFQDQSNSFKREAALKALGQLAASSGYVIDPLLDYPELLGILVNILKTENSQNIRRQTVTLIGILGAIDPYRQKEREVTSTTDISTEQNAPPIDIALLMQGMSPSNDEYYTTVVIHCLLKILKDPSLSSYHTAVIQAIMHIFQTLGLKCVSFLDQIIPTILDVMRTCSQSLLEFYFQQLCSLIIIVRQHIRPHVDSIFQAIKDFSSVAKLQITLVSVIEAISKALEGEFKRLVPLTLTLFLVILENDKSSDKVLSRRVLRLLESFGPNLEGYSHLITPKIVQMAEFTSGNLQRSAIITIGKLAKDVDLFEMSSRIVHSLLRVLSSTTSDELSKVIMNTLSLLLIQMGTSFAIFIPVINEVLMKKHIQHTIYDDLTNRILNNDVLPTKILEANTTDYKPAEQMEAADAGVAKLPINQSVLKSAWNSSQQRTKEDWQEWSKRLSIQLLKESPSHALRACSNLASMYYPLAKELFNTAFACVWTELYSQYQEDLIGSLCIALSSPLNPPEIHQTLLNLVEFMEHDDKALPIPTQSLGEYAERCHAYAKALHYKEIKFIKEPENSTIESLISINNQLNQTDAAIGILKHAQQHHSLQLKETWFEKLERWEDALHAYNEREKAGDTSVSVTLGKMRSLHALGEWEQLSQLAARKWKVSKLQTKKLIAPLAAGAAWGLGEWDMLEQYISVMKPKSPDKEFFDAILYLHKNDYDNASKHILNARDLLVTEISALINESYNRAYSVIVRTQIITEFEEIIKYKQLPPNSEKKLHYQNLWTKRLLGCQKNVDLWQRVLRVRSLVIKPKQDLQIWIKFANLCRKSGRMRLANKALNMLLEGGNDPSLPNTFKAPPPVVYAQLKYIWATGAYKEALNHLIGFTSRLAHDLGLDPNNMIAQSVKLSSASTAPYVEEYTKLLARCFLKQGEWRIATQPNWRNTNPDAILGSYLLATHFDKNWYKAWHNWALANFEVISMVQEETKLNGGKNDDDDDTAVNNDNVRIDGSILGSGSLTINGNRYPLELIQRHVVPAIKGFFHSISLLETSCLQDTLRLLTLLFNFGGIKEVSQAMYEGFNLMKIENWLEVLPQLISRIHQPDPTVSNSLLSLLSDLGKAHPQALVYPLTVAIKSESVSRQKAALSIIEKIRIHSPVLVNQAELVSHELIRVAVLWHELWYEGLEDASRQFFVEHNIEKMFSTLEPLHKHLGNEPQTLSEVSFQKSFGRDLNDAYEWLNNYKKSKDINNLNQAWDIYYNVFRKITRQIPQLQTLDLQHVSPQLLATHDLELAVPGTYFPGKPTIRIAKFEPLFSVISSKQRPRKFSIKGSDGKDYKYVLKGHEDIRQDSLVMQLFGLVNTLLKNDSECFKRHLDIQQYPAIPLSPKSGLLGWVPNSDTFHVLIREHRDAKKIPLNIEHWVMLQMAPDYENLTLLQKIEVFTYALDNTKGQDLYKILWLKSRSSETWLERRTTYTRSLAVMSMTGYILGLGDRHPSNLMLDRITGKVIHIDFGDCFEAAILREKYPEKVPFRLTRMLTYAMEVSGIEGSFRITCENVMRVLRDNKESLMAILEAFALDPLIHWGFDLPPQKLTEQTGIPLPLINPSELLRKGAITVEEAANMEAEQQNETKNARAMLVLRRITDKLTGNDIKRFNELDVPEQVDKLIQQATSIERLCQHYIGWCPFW

Key:
[1] = target: T1, Tor-His3 reporter (Saccharomyces cerevisiae, UniProt P06633+P35169); assay: Western assay of reporter degradation in liquid culture after cycloheximide (in vivo); type: cell-based, S. cerevisiae; conditions: strains Pre10-FPR1 and Rpn10-FPR1; rapamycin 1 μM versus no rapamycin
T1 construct: expressed in transfected cells; host or cells: S. cerevisiae strains Pre10-FPR1 and Rpn10-FPR1 (derivatives of DY001), reporter on a pRS415 plasmid
Protocol: (§1) The aforementioned growth assay was a convenient tool for isolating strains to further explore DTL. […] To address this point, degradation of the reporters was directly measured. Strains Pre10-FPR1 and Rpn10-FPR1 were singly transformed with plasmids that expressed hemagglutinin (HA) epitope-tagged versions of Tor-His3 and TorS1972R-His3. The transformants were grown in liquid culture to early log phase, whereupon cycloheximide was added to halt protein translation. Each culture was then split in two and rapamycin was added to one. Samples were collected at various times and whole-cell protein extracts were generated and used for Western analysis (FIGS. 4A-4H). […] These experiments confirm that the growth deficient phenotype seen on histidine-dropout media was due to the degradation of the Tor-His3 reporter and that the 26S proteasome is necessary for this to occur.
(§2) In both assays, rapamycin was added to a final concentration of 1 μM, cycloheximide was added to a final concentration of 30 ng/ml and PS-341 was added to a final concentration of 200 μM. For liquid cultures, samples were extracted at fixed time intervals (0, 30, 60, 90 minutes) and whole cell extracts were made. 25 μg of total protein was used from each sample, resolved by SDS-PAGE and transferred to PVDF membranes. Membranes were blocked with 10% powdered nonfat milk in PBST overnight at 4° C. and incubated with anti-HA (3F10) primary antibody (Roche Diagnostics, Indianapolis, Ind.), then HP-conjugated anti-rat secondary antibody. Visualization was done using the ECL Western Blotting system (Amersham Biosciences, Piscataway, N.J.).

[2] = target: T2, Tor-His3 reporter (Saccharomyces cerevisiae, UniProt P06633+P35169, S1972R); assay: as above; type: cell-based, S. cerevisiae; conditions: Fpr1-tagged strains Pre10-FPR1 and Rpn10-FPR1; with versus without rapamycin
T2 construct: expressed in transfected cells; host or cells: S. cerevisiae strains Pre10-FPR1 and Rpn10-FPR1 (derivatives of DY001), reporter on a pRS415 plasmid
Protocol: as §1, §2

[3] = test system: Tor-His3 reporter; assay: as above; type: cell-based, S. cerevisiae; conditions: untagged strains; 90 minute time course; with versus without rapamycin
Protocol: as §1, §2

[4] = test system: Fpr1-tagged proteasome strains expressing Tor-His3; assay: Gradient growth assay on histidine-dropout solid media with or without rapamycin; type: cell-based, S. cerevisiae; conditions: rapamycin 1 μM
[5] = test system: T3, Tor-His3 with purified 26S proteasomes from strain Rpn10-FPR1; assay: In vitro degradation assay with purified 26S proteasomes and purified reporter; type: biochemical, S. cerevisiae
T3 construct: made in house; host or cells: reporter: E. coli DH5αPRO (PROTet.133 vector)
From the text: Whole, functional 26S proteasomes have been previously affinity-purified for use in biochemical assays (Leggett et al. (2002) Mol. Cell 10:495). The same procedure was used to isolate proteasomes from strain Rpn10-FPR1. HA epitope-tagged versions of Tor-His3 and TorS1972R-His3 were purified from a bacterial expression system and then mixed with the proteasomes, with or without rapamycin. Samples were extracted at regular intervals and reporter degradation was monitored by Western analysis (FIG. 5A). […] Once again, proteolysis of Tor-His3 could be halted upon the addition of the proteasome inhibitor PS-341.
26S proteasomes were affinity purified from strains Pre10-FPR1 and Rpn10 FPR1 using the Rpn11-TEV-ProA tag described previously (Leggett et al. (2002) Mol. Cell 10:495). Cells were grown in YPD, harvested, resuspended in 50 mM Tris-HCl [pH 8], 1 mM EDTA and lysed by French press. Lysates was centrifuged at 15,000×g for 25 minutes, filtered and incubated with IgG resin (ICN) for 1 hr at 4° C. Resin was collected in a column, washed with 100 bed volumes of 50 mM Tris-HCl [pH 8], 50 mM NaCl, 1 mM EDTA buffer and equilibrated with TEV-protease buffer (50 mM Tris-HCl [pH 7.5], 1 mM EDTA, 1 mM DTT). […] The integrity of the 26S complexes and presence of Pre10-FPR1 and Rpn10-FPR1 tagged subunits was analyzed by Coomassie staining, SDS-PAGE and immunodetection. […]

CO[C@H]1C[C@@H]2CC[C@@H](C)[C@@](O)(O2)C(=O)C(=O)N2CCCC[C@H]2C(=O)O[C@H]([C@H](C)C[C@@H]2CC[C@@H](O)[C@H](OC)C2)CC(=O)[C@H](C)/C=C(\C)[C@@H](O)[C@@H](OC)C(=O)[C@H](C)C[C@H](C)/C=C/C=C/C=C/1C [rapamycin] was tested, and the “rate of degradation of Tor-His3” value [1] was “rapidly degraded; also recorded: increase in the rate of degradation”, the “rate of degradation of mutant reporter TorS1972R-His3” value [2] was “No difference in the rate of degradation” and the “rate of degradation of reporter in untagged strains” value [3] was “no difference in degradation rates”. The “growth phenotype on histidine-dropout media containing rapamycin” value (“growth phenotype” below) ([4]; strain Pre10-FPR1 expressing Tor-His3) was “decreased growth; also recorded: milder growth deficient phenotype”, the “growth phenotype” value ([4]; strain Rpn10-FPR1 expressing Tor-His3) was “decreased growth” and the “growth phenotype” value ([4]; strains Rpn2-FPR1 and Rpt5-FPR1) was “little or no difference in growth; also recorded: did not show comparative growth phenotypes consistent with degradation”. For the same molecule, the “growth phenotype” value ([4]; untagged DY001 control strain, Tor-His3 or TorS1972R-His3) was “grows equally well”, the “degradation of purified Tor-His3 in vitro” value ([5]; purified Rpn10-FPR1 proteasomes, rapamycin 1 μM, 60 minute time course) was “rapid degradation; also recorded: only observed in the presence of rapamycin” and the “degradation of purified TorS1972R-His3 in vitro” value ([5]; purified proteasomes, with or without rapamycin) was “no appreciable degradation”.
